Primary screen of a compound library

Chains of the proteins cited; added tags and fusions are not shown. Residues count along the entry.
UniProt A4I591, 1-473: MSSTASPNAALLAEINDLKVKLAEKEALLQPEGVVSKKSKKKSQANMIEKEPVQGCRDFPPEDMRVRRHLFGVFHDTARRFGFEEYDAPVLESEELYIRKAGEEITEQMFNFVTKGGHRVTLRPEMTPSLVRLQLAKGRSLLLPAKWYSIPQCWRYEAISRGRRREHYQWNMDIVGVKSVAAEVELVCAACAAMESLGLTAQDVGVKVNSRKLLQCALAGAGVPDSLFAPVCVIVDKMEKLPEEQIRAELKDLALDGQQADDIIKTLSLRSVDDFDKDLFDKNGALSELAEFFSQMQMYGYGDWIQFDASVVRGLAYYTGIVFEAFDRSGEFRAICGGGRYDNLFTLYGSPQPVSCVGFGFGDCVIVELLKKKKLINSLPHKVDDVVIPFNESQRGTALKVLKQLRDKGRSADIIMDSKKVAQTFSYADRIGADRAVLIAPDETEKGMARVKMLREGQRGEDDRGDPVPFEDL
UniProt Q4DA54, 1-478: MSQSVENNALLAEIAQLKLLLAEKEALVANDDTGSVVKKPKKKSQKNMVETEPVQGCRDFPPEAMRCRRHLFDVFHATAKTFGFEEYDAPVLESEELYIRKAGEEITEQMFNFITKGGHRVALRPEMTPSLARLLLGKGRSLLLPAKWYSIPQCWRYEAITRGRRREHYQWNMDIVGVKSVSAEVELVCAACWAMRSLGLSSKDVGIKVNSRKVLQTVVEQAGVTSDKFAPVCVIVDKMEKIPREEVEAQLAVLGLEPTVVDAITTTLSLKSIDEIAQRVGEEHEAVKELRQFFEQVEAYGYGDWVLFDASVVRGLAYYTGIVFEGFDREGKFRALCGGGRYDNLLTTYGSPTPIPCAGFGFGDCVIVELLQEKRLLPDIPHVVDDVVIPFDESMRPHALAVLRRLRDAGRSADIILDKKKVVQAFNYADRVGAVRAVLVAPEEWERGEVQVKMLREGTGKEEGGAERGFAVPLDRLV
UniProt Q8IDJ8, 1-583: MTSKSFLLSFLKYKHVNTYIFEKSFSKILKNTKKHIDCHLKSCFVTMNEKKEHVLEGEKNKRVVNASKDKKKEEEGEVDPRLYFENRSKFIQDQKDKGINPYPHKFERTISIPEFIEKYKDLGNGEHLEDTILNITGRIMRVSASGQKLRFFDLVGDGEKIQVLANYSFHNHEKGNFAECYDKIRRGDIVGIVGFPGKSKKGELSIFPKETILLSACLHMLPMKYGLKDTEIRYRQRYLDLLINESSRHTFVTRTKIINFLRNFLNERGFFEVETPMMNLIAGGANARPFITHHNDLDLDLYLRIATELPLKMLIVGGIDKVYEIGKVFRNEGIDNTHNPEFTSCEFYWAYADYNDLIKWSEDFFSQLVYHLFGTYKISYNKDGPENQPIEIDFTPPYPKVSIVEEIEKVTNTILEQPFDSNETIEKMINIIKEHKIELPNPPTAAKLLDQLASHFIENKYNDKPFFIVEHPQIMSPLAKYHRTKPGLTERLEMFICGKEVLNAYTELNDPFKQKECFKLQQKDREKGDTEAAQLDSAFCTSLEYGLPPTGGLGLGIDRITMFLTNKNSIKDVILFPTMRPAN

From ChEMBL document CHEMBL3988442, “University of Dundee, Small-Polar-MMV Screening Library” (2021).

LiHisRS: 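Histidine-tRNA ligase, Leishmania infantum (UniProt A4I591). Enzyme assay of histidyl-tRNA synthetase; the read-out is not stated. Compounds at 30 µM. Higher reads as stronger inhibition (inferred: compounds with an IC50 in retests scored well above the rest). The assay is labelled LdHisRS but filed under L. infantum. Of about 69,000 compounds tested this way, about 410 (0.6%) reached 50% or more in at least one test.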
TcHisRS: 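Histidine-tRNA ligase, Trypanosoma cruzi CL Brener (UniProt Q4DA54). Enzyme assay of histidyl-tRNA synthetase; the read-out is not stated. Compounds at 30 µM. Higher reads as stronger inhibition (inferred: compounds with an IC50 in retests scored well above the rest). Of about 69,000 compounds tested this way, about 31 (0.045%) reached 50% or more in at least one test.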
PfKRS1: 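Lysine-tRNA ligase, Plasmodium falciparum 3D7 (UniProt Q8IDJ8). Enzyme assay of the cytosolic lysyl-tRNA synthetase in 384-well plates, read by luminescence. Tested at 30 µM. Higher reads as stronger inhibition, judged from the few compounds that gave an IC50. Size under these conditions: about 69,000 compounds, about 49 of them at 50% or above in at least one test.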
Leishmania in macrophages: 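Cell assay of Leishmania donovani living inside macrophages; the read-out is not stated. Compounds at 30 µM. Higher reads as stronger inhibition (inferred: compounds with an IC50 in retests scored well above the rest). Of about 69,000 compounds tested this way, about 1,000 (1.5%) reached 50% or more in at least one test.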

Each number is a percent effect as filed.
The record does not define 0% and 100%; most values in the screen are far below 50% and negative numbers occur (in some assays of this library far below -100).
This is an unselected part of the compounds tested.
Two or more numbers in one place are separate tests of the same structure; such repeats can differ widely.
A dash means the value is not listed here; it may have been measured.

| # | compound | LiHisRS | TcHisRS | PfKRS1 | Leishmania in macrophages |
|---|---|---|---|---|---|
| 1 | `Cc1nc(CN2CCOC(Cn3cccn3)C2)nc2ccccc12` (centres undefined) | 20.35 | 8.455 | 0.01355 | 18.44 |
| 2 | `COc1cccc(NC(=O)NCC2CCCN(C3CCOCC3)C2)c1` (centres undefined) | 8.333 | 2.609 | -0.09 | 34.16 |
| 3 | `COc1ccc2c(c1)c(C(=O)Nc1nnn[nH]1)cn2C` | 18.75 | 12.5 | 0.8052 | 7.746 |
| 4 | `Cc1ccc(-c2cn[nH]c2C2CCCN(c3nccc(N)n3)C2)cc1` (centres undefined) | 16.35 | 0.813 | 2.756 | 38.28 |
| 5 | `[H][C@@]12CCCO[C@]1([H])[C@H](NS(C)(=O)=O)CN(C(=O)c1ccccn1)C2` | - | - | - | 6.865 |
| 6 | `CCc1ccc(CN2CC[C@@H]3CN(S(C)(=O)=O)CCO[C@@H]3C2)o1` | 10.53 | 9.677 | 1.941 | - |
| 7 | `O=C1O[C@@H]2CN(C3CCOCC3)C[C@@H]2N1CCc1cccc(Cl)c1` | 4.167 | 7.821 | 4.071 | - |
| 8 | `CCOc1ccc(-c2c(-c3ccccc3)ncn2C2CCNC2)cn1` (centres undefined) | 15.38 | 6.897 | 4.537 | 76.3 |
| 9 | `c1ccc(Cc2nc(CNCCn3cccn3)cs2)cc1` | 30.11 | 10.88 | -0.2503 | -19.71 |
| 10 | `Cc1cc(C(=O)N[C@H]2CC[C@@]3(CCC(=O)N3)CC2)no1` | -13.59 | -12.62 | 2.73 | 1.338 |
| 11 | `COc1ccc2c(ccn2CCC(=O)Nc2n[nH]c(C(C)C)n2)c1` | 23.91 | 15.84 | 2.717 | -7.507 |
| 12 | `Cn1ccnc(Nc2ccc3c(c2)CCN3C(=O)c2cccnc2)c1=O` | 33.33 | 3.448 | -0.8196 | 24.6 |
| 13 | `CNC(=O)CC1CCN(C(=O)Nc2ccc(-c3cc[nH]n3)cc2)CC1` | 12.28 | 5.882 | 1.91 | 4.193 |
| 14 | `CC(C)(C)n1ncc2c(=O)n(CC(=O)NCc3ccccc3Cl)cnc21` | 12.17 | -5.155 | 6.055 | 5.939 & 9.404 |
| 15 | `Cc1nnc2n1CCN(CCC(=O)Nc1sccc1C#N)C2` | 25.76 | -1.515 | 3.686 | 4.696 |
| 16 | `Cl.O=C(c1cccnc1N1CCN(CCO)CC1)N1CCCC1` | - | - | - | -13.79 |
| 17 | `c1cncc(-n2cnnc2CCCN2CCOCC2)c1` | 18.58 | 7.2 | 2.767 | 32.15 |
| 18 | `CCc1cnc(C)nc1NCCN1CCCC(C(N)=O)C1` (centres undefined) | 23.29 | -6.931 | 5.242 | -5.161 |
| 19 | `Cc1cc(C(=O)N[C@H]2CN(CCC(N)=O)C[C@@H]2C2CC2)sc1C` | 7.527 | 3.665 | -2.752 | 17.89 |
| 20 | `Cc1nc(CNCC(O)COc2ccc3c(c2)OCO3)cs1` (centres undefined) | 10.92 | 6.863 | 0.9201 | -7.863 |
| 21 | `CN(CC(=O)N1CCCCC1c1nc(C(C)(C)C)cs1)C1CC1` (centres undefined) | 11.97 | 5.983 | -0.1608 | -0.4705 |
| 22 | `Cc1ccc(NC2CCN(C(=O)CN(C)C3CC3)CC2)nn1` | 5.405 | 5.639 | 5.952 | 28.11 |
| 23 | `CC(C)N(C)S(=O)(=O)N(Cc1cccs1)Cc1cccs1` | 0 | -0.6024 | 4.925 | 8.621 |
| 24 | `CSCC(=O)N1CCCC(CO)(CC2CC2)C1` (centres undefined) | -4.082 | 4.103 | 1.505 | 10.84 |
| 25 | `CC(C)c1ncc(CN2CCC(CO)C2)cn1.O=C(O)CC(O)(CC(=O)O)C(=O)O` (centres undefined) | - | - | - | -0.3408 |
| 26 | `CC(C)c1nc(C2CCCN2C(=O)CN(C)Cc2ccccc2)no1` (centres undefined) | 12.9 | 4.938 | -0.1073 | 32.13 |
| 27 | `O=S(=O)(CCC1CCCO1)NCc1ncc(-c2ccccc2)o1` (centres undefined) | 14.04 | 5.882 | 8.455 | 5.166 |
| 28 | `Cc1ccc(NC2CCN(C(=O)c3ccco3)CC2)nn1` | -17.86 | 1.163 | -2.553 | 8.82 |
| 29 | `C[C@@H]1CN(Cc2ccncc2)C[C@]1(C)O` | 2.174 | 0.9901 | 3.034 | -5.836 |
| 30 | `[H][C@]12CC[C@]([H])(CN(CC(=O)N(C)C)C1)N(C(=O)CCn1cc(C)cn1)C2` | - | - | - | -0.2275 |
| 31 | `Cc1ccc(C(=O)N2CCCS2(=O)=O)cc1Cl` | 12.16 | 0.3774 | -0.6101 | -25.48 |
| 32 | `CCOCCC(=O)Nc1cc(C)cnc1OC` | 9.524 | 0 | 1.07 | -22.89 |
| 33 | `Cc1ncsc1CN1C[C@@H]2COC[C@]2(C(=O)NCC2CC2)C1` | 6.569 | 4.918 | -0.7745 | - |
| 34 | `Cc1nc(C)c(C(=O)NCCNC(=O)Cc2ccccc2)s1` | 12.31 | 2.682 | 5.556 | 22.92 |
| 35 | `CCC(C)NC(=O)N1CCCn2cnc(CO)c2C1` (centres undefined) | 5.714 | 4.132 | 2.458 | 4.901 |
| 36 | `COCCNC(=O)C1CN(Cc2csc(C)n2)Cc2ccnn2C1` (centres undefined) | 14.71 | 4.926 | 0.6734 | - |
| 37 | `CN(CC(=O)Nc1cccnc1)C1CCCN(c2cccnn2)C1` (centres undefined) | 2.679 | 6.358 | -1.763 | 1.857 |
| 38 | `Cc1cccc(C(C(=O)NCc2nc(-c3ncccn3)no2)N(C)C)c1` (centres undefined) | 12.68 | 4.459 | -1.477 | 0.7253 |
| 39 | `[H][C@@]12COC[C@]1(CNS(C)(=O)=O)CN(C(=O)c1cccn1C)C2` | - | - | - | 4.618 & -2.081 |
| 40 | `CN1C[C@@H](C(=O)N(C)C)[C@@]2(CCc3ccccc3C(=O)N2)C1` | 15.71 | 8.046 | -0.2733 | - |
| 41 | `O=C(NCCNc1ncccn1)c1scnc1Cl` | 17.78 | 5.952 | 3.261 | 26.96 |
| 42 | `COc1ncc(-c2cc(NC3CCCC3)nc3[nH]ccc23)c(OC)n1` | 21.28 | 37.57 | -0.2916 | -13.65 |
| 43 | `CN1CCN(Cc2cn3c(n2)CN(Cc2cccnc2)CC3)CC1` | 6.015 | 0.5525 | -6.136 | -17.55 |
| 44 | `O=C(O)CCc1cc2n(n1)CCCN(C(=O)c1ccc3cc[nH]c3c1)C2` | 23.08 | 0.8333 | 1.989 | 31.37 |
| 45 | `CNC(=O)c1cc2c(nc1NCC(C)C)CCN(CCOC)CC2.O=C(O)C(F)(F)F.O=C(O)C(F)(F)F` | - | - | - | -6.391 |
| 46 | `O=C(c1ccoc1)N1CCCN(C(=O)c2ccc(C3CCCN3)s2)CC1` (centres undefined) | 6.25 | 5.587 | 0.5116 | -2.18 |
| 47 | `COc1nccnc1N1CCC2(CCCN(C(C)C)C2=O)C1` (centres undefined) | 8 | 4.891 | 2.749 | -3.353 |
| 48 | `Nc1ccnc(N2CCC(c3nccn3CC3CC3)CC2)n1` | 6.667 | 2.609 | 0.5528 | -11.33 |
| 49 | `Cc1noc(C)c1CN1C[C@H](C)[C@]2(CCN(Cc3cccnc3)C2=O)C1.O=C(O)C(F)(F)F.O=C(O)C(F)(F)F` | - | - | - | 13.3 |
| 50 | `CNC(=O)c1cc2c(nc1N(C)C)CCN(C)CC2` | 15.79 | 5.464 | 2.281 | - |
| 51 | `Cc1cnc(N2CCC3(CC2)C(c2ccccc2)CC(=O)N3C)nc1` (centres undefined) | 6.838 | 12.27 | -2.232 | -2.25 |
| 52 | `Nc1nc2c(c(NCC(c3cccnc3)N3CCOCC3)n1)CCNC2` (centres undefined) | 18.18 | 3.636 | -0.1184 | 45.62 |
| 53 | `O=C1N(CC2CC2)CCC12CCCN(c1ncc(F)cn1)C2` (centres undefined) | 13.21 | -1.111 | -0.234 | - |
| 54 | `Cc1nn(CCCNC(=O)C2CCN(S(C)(=O)=O)CC2)cc1Cl` | 12.36 | 3.627 | 4.264 | 1.684 |
| 55 | `O=C(Cc1ccc(Br)cc1)N1CC(S(=O)(=O)C2CCCCC2)C1` | 6.957 | -2.062 | 0.1245 | 6.038 & 6.413 |

Once more, the final 6:

With CNC(=O)c1cc2c(nc1N(C)C)CCN(C)CC2 the screen gave LiHisRS: 15.79%; TcHisRS: 5.464%; PfKRS1: 2.281%.
With Cc1cnc(N2CCC3(CC2)C(c2ccccc2)CC(=O)N3C)nc1 (centres undefined) the screen gave LiHisRS: 6.838%; TcHisRS: 12.27%; PfKRS1: -2.232%; Leishmania in macrophages: -2.25%.
With Nc1nc2c(c(NCC(c3cccnc3)N3CCOCC3)n1)CCNC2 (centres undefined) the screen gave LiHisRS: 18.18%; TcHisRS: 3.636%; PfKRS1: -0.1184%; Leishmania in macrophages: 45.62%.
With O=C1N(CC2CC2)CCC12CCCN(c1ncc(F)cn1)C2 (centres undefined) the screen gave LiHisRS: 13.21%; TcHisRS: -1.111%; PfKRS1: -0.234%.
With Cc1nn(CCCNC(=O)C2CCN(S(C)(=O)=O)CC2)cc1Cl the screen gave LiHisRS: 12.36%; TcHisRS: 3.627%; PfKRS1: 4.264%; Leishmania in macrophages: 1.684%.
With O=C(Cc1ccc(Br)cc1)N1CC(S(=O)(=O)C2CCCCC2)C1 the screen gave LiHisRS: 6.957%; TcHisRS: -2.062%; PfKRS1: 0.1245%; Leishmania in macrophages: 6.038% & 6.413%.